US20210145972A1, “NAN[…] A NUCLEIC ACID SCAFFOLD AND VIRUS-BINDING PEPTIDE MOIETIES” (FRAUNHOFER-GESELLSCHAFT ZUR FÖRDERUNG DER ANGEWANDTEN …, priority 2017, published 2021)
These are yes or no findings as the source states them, for the method shown. Binding calls can cover weak binding; strength is not graded here.

How the values were obtained:
[1] = target: bromelain treated hemagglutinin (BHA) (influenza A virus); assay: microscale thermophoresis
[2] = target: bromelain treated hemagglutinin (BHA) (influenza A virus); assay: microscale thermophoresis, BHA as ligand

Q: With ARDFYDYDVFYYAMD (designed binder) [DNA-PeB3 nanostructure (three-branched DNA scaffold, structure N, with three PeB peptide moieties)] as the binder, how does the binding [1] read?
A: binds

Q: And the binding [2]?
A: binds
